PubChem BioAssay AID1224826 – NIAID, 2016

Purpose: 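Regulators of Tlr4 signalling leading to Tnf-alpha expression in macrophages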 (primary screen)
Cell system: RAW264.7 G9 macrophages from mouse bearing reporters for p65 (GFP) and the Tnf promoter (mCherry)
Reagents: siRNA pool against mouse genes, 100 nM
Duration: 16 h of LPS stimulation, after 2 days of siRNA transfection
Conditions: bacterial lipopolysaccharide (Salmonella minnesota R595), 10 ng/ml
Measured: 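Nuclear mCherry signal of the Tnf promoter reporter measured by imaging after background removal, scaled to each plate median and turned into robust z-scores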
Direction: Tnf reporter robust z-score: higher = stronger Tnf promoter reporter signal after LPS
Call rule: 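a well counts as active at a score of -1.3 or below (Tlr4 knock-down control median) or above 3 (raised signal); controls and wells holding fewer than 50 cells are excluded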
Meaning of the calls: active = Tnf reporter clearly lowered or raised; inactive = no clear change in Tnf reporter
Shown is a random part of about 17,000 deposited reagents. Of all reagents, about 1,110 (6.6%) are marked active. 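Active means lowered or raised reporter signal; replicate intensities are raw and not normalised per plate.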 Reagents against one gene are numbered here. Further read-outs or replicates are left out here.

| gene knocked down | reagent no. | Tnf reporter robust z-score | fewer than 50 cells in well | call |
| --- | --- | --- | --- | --- |
| Serpinb9c | 1 | 1 | enough cells in well | inactive |
| Lrch4 | 1 | 1.1 | enough cells in well | inactive |
| Nyx | 1 | -0.21 | enough cells in well | inactive |
| Mrpl58 | 1 | 1.34 | enough cells in well | inactive |
| Atf2 | 1 | 1.3 | enough cells in well | inactive |
| Flot2 | 1 | -1.31 | enough cells in well | active |
| Herc4 | 1 | 0.21 | enough cells in well | inactive |
| Rgs6 | 1 | 0.94 | enough cells in well | inactive |
| Gpm6a | 1 | 0.52 | enough cells in well | inactive |
| Tm9sf1 | 1 | 0.45 | enough cells in well | inactive |
| Uba6 | 1 | 0.47 | enough cells in well | inactive |
| Eif3d | 1 | -1.01 | enough cells in well | inactive |
| Rbm26 | 1 | 0.52 | enough cells in well | inactive |
| Dpm1 | 1 | -0.61 | enough cells in well | inactive |
| Nmd3 | 1 | -1.37 | enough cells in well | active |
| Nup88 | 1 | -0.79 | enough cells in well | inactive |
| Utp3 | 1 | -0.37 | enough cells in well | inactive |
| Vmn1r148 | 1 | 1.04 | enough cells in well | inactive |
| Nadk | 1 | 0.91 | enough cells in well | inactive |
| Or8d6 | 1 | 1.15 | enough cells in well | inactive |
| Dlg2 | 1 | -1.15 | enough cells in well | inactive |
| Tesmin | 1 | -0.2 | enough cells in well | inactive |
| Stx19 | 1 | 3.87 | enough cells in well | active |
| Il17rc | 1 | -1.5 | enough cells in well | active |
| Sall3 | 1 | -0.12 | enough cells in well | inactive |
| Dnmbp | 1 | 0.86 | enough cells in well | inactive |
| Selenov | 1 | 1.5 | enough cells in well | inactive |
| Ccdc59 | 1 | 0.64 | enough cells in well | inactive |
| Celf2 | 1 | 0.71 | enough cells in well | inactive |
| Celf2 | 2 | -0.45 | enough cells in well | inactive |
| Dicer1 | 1 | 2.67 | enough cells in well | inactive |
| Zfp935 | 1 | -1.5 | enough cells in well | active |
| Ndufb7 | 1 | -0.21 | enough cells in well | inactive |
| Rnf186 | 1 | -0.56 | enough cells in well | inactive |
| Scamp2 | 1 | 2.74 | enough cells in well | inactive |
| Hr | 1 | -0.74 | enough cells in well | inactive |
| Aldh8a1 | 1 | -0.81 | enough cells in well | inactive |
| Ugt2a1 | 1 | 0.65 | enough cells in well | inactive |
| Il27 | 1 | -1.07 | enough cells in well | inactive |
| Armc2 | 1 | – | fewer than 50 cells per well; well left out of calls | inactive |
| Ms4a10 | 1 | 1.12 | enough cells in well | inactive |
| Borcs5 | 1 | 0.81 | enough cells in well | inactive |
| Isoc1 | 1 | 2.06 | enough cells in well | inactive |
| Nrgn | 1 | -0.1 | enough cells in well | inactive |
| Pakap | 1 | 3.14 | enough cells in well | active |
| Pakap | 2 | -0.21 | enough cells in well | inactive |
| Slc1a5 | 1 | 0.19 | enough cells in well | inactive |
| Hadhb | 1 | 1.57 | enough cells in well | inactive |
| Nmrk1 | 1 | -1.08 | enough cells in well | inactive |
| Ear6 | 1 | -0.45 | enough cells in well | inactive |
| Crot | 1 | -0.37 | enough cells in well | inactive |
| Slc44a2 | 1 | 1.11 | enough cells in well | inactive |
| Cbfa2t2 | 1 | -1.09 | enough cells in well | inactive |
| Crym | 1 | 0.3 | enough cells in well | inactive |
| Galnt9 | 1 | 0.58 | enough cells in well | inactive |
| Or52h1 | 1 | 0.65 | enough cells in well | inactive |
| Xrcc4 | 1 | 0.22 | enough cells in well | inactive |
| Bdp1 | 1 | -0.6 | enough cells in well | inactive |

Reformatted: results already given.
Uba6
- Tnf reporter robust z-score: 0.47
- fewer than 50 cells in well: enough cells in well
- call: inactive

Eif3d
- Tnf reporter robust z-score: -1.01
- fewer than 50 cells in well: enough cells in well
- call: inactive

Rbm26
- Tnf reporter robust z-score: 0.52
- fewer than 50 cells in well: enough cells in well
- call: inactive

Dpm1
- Tnf reporter robust z-score: -0.61
- fewer than 50 cells in well: enough cells in well
- call: inactive

Nmd3
- Tnf reporter robust z-score: -1.37
- fewer than 50 cells in well: enough cells in well
- call: active

Nup88
- Tnf reporter robust z-score: -0.79
- fewer than 50 cells in well: enough cells in well
- call: inactive

Utp3
- Tnf reporter robust z-score: -0.37
- fewer than 50 cells in well: enough cells in well
- call: inactive

Vmn1r148
- Tnf reporter robust z-score: 1.04
- fewer than 50 cells in well: enough cells in well
- call: inactive
